Drawing on paper PMC7819943, “Rice protein-binding microarrays: a tool to detect cis-acting elements near promoter regions in rice”, this text covers binding signal for 42 sequences.

This is one part of the list.

The test deals with T1, OsSMF1 (Oryza sativa, UniProt Q6ZLB0 1-436).
T1 sequence: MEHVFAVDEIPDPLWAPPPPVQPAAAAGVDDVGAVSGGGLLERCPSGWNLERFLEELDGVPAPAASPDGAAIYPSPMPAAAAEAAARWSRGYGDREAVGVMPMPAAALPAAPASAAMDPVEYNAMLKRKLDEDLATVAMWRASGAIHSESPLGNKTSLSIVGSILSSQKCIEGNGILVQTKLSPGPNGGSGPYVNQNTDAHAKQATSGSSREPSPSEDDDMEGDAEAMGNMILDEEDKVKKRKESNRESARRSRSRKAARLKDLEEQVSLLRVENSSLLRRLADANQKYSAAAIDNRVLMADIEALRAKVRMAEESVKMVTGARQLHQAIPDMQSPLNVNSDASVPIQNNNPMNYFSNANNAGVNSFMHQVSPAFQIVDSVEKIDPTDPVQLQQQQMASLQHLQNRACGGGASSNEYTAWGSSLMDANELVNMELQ
Put plainly: protein-binding microarray (RPBM); PBS, 2% BSA, 51.3 ng/ul salmon testes DNA, 50 uM zinc acetate, 200 nM TF, 25 C, 1 h; high values mean tight binding. To be noted: protein: recombinant; tags: N-terminal polyhistidine and DsRed monomer fusion (pET32a); chain copies: 2; label: CyDye5-dUTP incorporated in the synthesized complementary strand; 3' TTTTT single-stranded linker to array surface; dsDNA, one strand shown. The essentials: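 Ni–NTA purification followed expression in E. coli BL21-CodonPlus of transcription factors fused N-terminally to a polyhistidine tag and DsRed. At 200 nM in PBS with 2% BSA, salmon testes DNA and 50 µM zinc acetate, the protein was incubated for 1 h at 25 °C with a custom Agilent array that had been primer-extended with Cy5-dUTP and blocked with 2% BSA. After washing, the array was read on an Axon 4000B scanner. The binding signal is per-feature fluorescence intensity in arbitrary units.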
For the sequence “CCATTTTGTTCCACCGCGTCGGCGGAAAGAGTGCACTGCCCGGAGTCACCTAGTGCAG”, the binding signal is 3500 fluorescence intensity (a.u.).

As to “TCAAGGACCTCGTCATCCTCTCAGGTAACACACTTTCCCTCGGAGTCACCTAGTGCAG”, the binding signal is 3780 fluorescence intensity (a.u.).

On to “GTTTCGAACGAAGCCCGATTGTAGATGACGTATCGACGCCCGGAGTCACCTAGTGCAG”, for which the binding signal was 6810 fluorescence intensity (a.u.).

Take “TTCATAAGCTGCTTACGTGTTATTTGCACAGTTTAAATTTCGGAGTCACCTAGTGCAG”: the binding signal is 15800 fluorescence intensity (a.u.).

As for “TACTCCCTCCTTCCCTAAATGTTTGACACCGTGGACTTTTCGGAGTCACCTAGTGCAG”, the binding signal is 3600 fluorescence intensity (a.u.).

Turning to “GCCTCCATCCCCTTCTTCCGTGTCGTTGCCACCGCATCGCCGGAGTCACCTAGTGCAG”, the binding signal was 6220 fluorescence intensity (a.u.).

For “GCTTGAATTCCTGGTCGGTCACCCATCACTTGTCCTCACTCGGAGTCACCTAGTGCAG”, the binding signal is 16400 fluorescence intensity (a.u.).

As to “ACAAATTTTAAAGGCGACAGGAGAATAAATCCCCAAAGCGCGGAGTCACCTAGTGCAG”, the binding signal was 28900 fluorescence intensity (a.u.).

For “GTTTGCAAGTTTGCTCTGTCAACGTCCACCAATACGGCAACGGAGTCACCTAGTGCAG”, the binding signal is 3890 fluorescence intensity (a.u.).

For “GTGAGATTAGACATTGCCACGTGGCTGGCGGTCTCGCAGCCGGAGTCACCTAGTGCAG”, the binding signal is 22200 fluorescence intensity (a.u.).

Regarding “TTGCAGTCCACCAATATTGGAGCGACGTAGGTTGAGTCCACGGAGTCACCTAGTGCAG”, the binding signal was 4030 fluorescence intensity (a.u.).

With “ATGGCCACGTCAGCTCCATTCCCGTCGCGTCACTGCCTCTCGGAGTCACCTAGTGCAG”, the binding signal was 18700 fluorescence intensity (a.u.).

For the sequence “TCGCGGTGGTGGTGAAGCTGGTGTGGAGGCCCCGCGCCATCGGAGTCACCTAGTGCAG”, the binding signal was 3270 fluorescence intensity (a.u.).

As to “AAAGTTACAGCGTAAGTTTTATAAATTACACTGTAACTTACGGAGTCACCTAGTGCAG”, the binding signal is 8930 fluorescence intensity (a.u.).

Turning to “CGTGCAGTGGCCGGCGCGCAGCCGACGTCTCCATCAGTGCCGGAGTCACCTAGTGCAG”, the binding signal is 4020 fluorescence intensity (a.u.).

As for “CTGCACTGCGTTACATGCGGCGTGACACGCTCAGCCAAACCGGAGTCACCTAGTGCAG”, the binding signal is 4640 fluorescence intensity (a.u.).

Consider “GGAGAAGGGTAGAACAGGATATACAGTTATACACCCGCTACGGAGTCACCTAGTGCAG”, for which the binding signal was 4120 fluorescence intensity (a.u.).

In the case of “TACCATTGGCCTGCTCCTGTCCTGAGTCAGCACTAGAGAGCGGAGTCACCTAGTGCAG”, the binding signal is 16100 fluorescence intensity (a.u.).

For “AGGCCGGAGTGAGGGAGCAAAGGCTGACGAAACGCACATCCGGAGTCACCTAGTGCAG”, the binding signal was 3260 fluorescence intensity (a.u.).

For “GCCGCCGCGGGGCACCCCTACGCGTGGCCCGCGCAGGTAGCGGAGTCACCTAGTGCAG”, the binding signal is 3180 fluorescence intensity (a.u.).

For “ACAAGATTTTCTTCAGTCTGAAACACTACAAAATGGGTCACGGAGTCACCTAGTGCAG”, the binding signal was 5990 fluorescence intensity (a.u.).

For “ACCGAACAGCTCAGTGCCCGCCCCGCCCTGGACCTTGACGCGGAGTCACCTAGTGCAG”, the binding signal was 3320 fluorescence intensity (a.u.).

Turning to “ACCGAGGATGAGAAGAGGGGAGAGAGAAGGATGACGTGGCCGGAGTCACCTAGTGCAG”, the binding signal is 22100 fluorescence intensity (a.u.).

With “TCATACTTTCTTAATAGCCGTGTCAACTCTAAATCTTCTTCGGAGTCACCTAGTGCAG”, the binding signal was 3320 fluorescence intensity (a.u.).

On to “ACAAGTGAATCCGATCTCACATGCCAGCAGTAGCTACTACCGGAGTCACCTAGTGCAG”, for which the binding signal was 13700 fluorescence intensity (a.u.).

For the sequence “GAGGCCACGTCTGGGGCAGGCGGGCCTTGCCGGAACCGGGCGGAGTCACCTAGTGCAG”, the binding signal is 4620 fluorescence intensity (a.u.).

For the sequence “GGCTGTTGAACAATACACATGACCCTCCTCCCTTACTAATCGGAGTCACCTAGTGCAG”, the binding signal was 30200 fluorescence intensity (a.u.).

Consider “GCGCGGCGATGACACGTGTCGCATGACTCACCAGCGGTGTCGGAGTCACCTAGTGCAG”, for which the binding signal is 24000 fluorescence intensity (a.u.).

“GAAGCCATGGCGGCGAGATCGCCTCACGTGTCGCCACCGCCGGAGTCACCTAGTGCAG”: the binding signal is 6500 fluorescence intensity (a.u.).

On to “CTCCTCCGTCATCTCCATGTACTGGTGCGCGTCCGCGATCCGGAGTCACCTAGTGCAG”, for which the binding signal was 4410 fluorescence intensity (a.u.).

Turning to “TACAACTACGGCCCTCCGCAGCCACAGGCGCCGCCGCCGCCGGAGTCACCTAGTGCAG”, the binding signal was 3340 fluorescence intensity (a.u.).

For “ACTGACAAGCAGTGAATTTTACCCCGTAACTTACGCATATCGGAGTCACCTAGTGCAG”, the binding signal is 3150 fluorescence intensity (a.u.).

Regarding “ATTGACCACTTTATTGTATGTCGTCAACAGAAGAAGTGCTCGGAGTCACCTAGTGCAG”, the binding signal is 3510 fluorescence intensity (a.u.).

In the case of “ACTGCCGGTTCAACTGCTCCACGGCTCCACTCCACGCATCCGGAGTCACCTAGTGCAG”, the binding signal is 43300 fluorescence intensity (a.u.).

On to “CCGCAGCCACGCAAGCATGCAAACCAGCACAACACAACACCGGAGTCACCTAGTGCAG”, for which the binding signal was 4870 fluorescence intensity (a.u.).

For “AGAGAACGGTGAACCGGGAAAAGCCCTGTGAATTTTCAAACGGAGTCACCTAGTGCAG”, the binding signal was 19700 fluorescence intensity (a.u.).

Take “CAAAGATGGAGAATCGTTGCCTCGATCCCTTCGAACACCCCGGAGTCACCTAGTGCAG”: the binding signal was 37400 fluorescence intensity (a.u.).

For “GCCCGCCAATGCGGTCCCGACACGTGTCCCCTCCCCGCTCCGGAGTCACCTAGTGCAG”, the binding signal is 21600 fluorescence intensity (a.u.).

For “TTAAGATTAAGATTAAGATAGATAATAATACGACATGTTCCGGAGTCACCTAGTGCAG”, the binding signal was 22100 fluorescence intensity (a.u.).

For the sequence “CCCCTGATCGGACGGTCCGGGTTCTTCCAGTGACGTGGATCGGAGTCACCTAGTGCAG”, the binding signal is 15000 fluorescence intensity (a.u.).

As for “AATCACCAACCTTGTCATCTATGTAGGCGGTCCAAAACCGCGGAGTCACCTAGTGCAG”, the binding signal is 4100 fluorescence intensity (a.u.).

Consider “TTTTATGACAATTAGTATAAGATGGGGTGGCTTAGTGACGCGGAGTCACCTAGTGCAG”, for which the binding signal was 3340 fluorescence intensity (a.u.).
